PubChem BioAssay AID1671195 | Yale University | 2021
Screen: 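Regulators of LDL receptor activity judged by labelled LDL uptake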 (primary screen). System: human Huh7 hepatoma cells. Reagent: siRNA pool against human genes, 18 nM. Timing: about 2 to 2.5 days of knockdown, then 8 h LDL uptake. Conditions: DiI-labelled LDL at 30 µg/ml for 8 h, in lipoprotein-deficient serum medium. Measured: 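Fluorescent LDL signal imaged in cells, scaled to the plate median, robust z-score for each replicate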. Direction: robust z-score: higher = more LDL uptake after knockdown. Active means: 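Active when two or more replicates show a robust z-score above 2 or below -2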.
Shown is a random part of about 22,000 reagents. About 1,510 of all reagents (6.9%) were called active. 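Active includes knockdowns raising or lowering LDL uptake; positive z-scores mean more uptake, negative mean less.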 Reagents against one gene are numbered here.

CFAP65 (GeneID 255101) gave robust z-score, replicate 1 = 0.604; robust z-score, replicate 2 = 0.684; robust z-score, replicate 3 = 0.797; inactive.
After knock-down of CCL26 (GeneID 10344), the record shows robust z-score, replicate 1 = -1.4; robust z-score, replicate 2 = -1.08; robust z-score, replicate 3 = -1.38; inactive.
BPIFA4P (GeneID 317716) showed robust z-score, replicate 1 = -0.796; robust z-score, replicate 2 = -0.695; robust z-score, replicate 3 = -0.747; inactive.
NDUFB11P1 (GeneID 390239) gave robust z-score, replicate 1 = 0.82; robust z-score, replicate 2 = 0.992; robust z-score, replicate 3 = 0.686; inactive.
For SEM1 (GeneID 7979) #1 the deposit lists robust z-score, replicate 1 = 2.66; robust z-score, replicate 2 = 0.998; robust z-score, replicate 3 = 3.08; active.
After knock-down of SEM1 (GeneID 7979) #2, the screen gave robust z-score, replicate 1 = -0.283; robust z-score, replicate 2 = -0.416; robust z-score, replicate 3 = -1.02; inactive.
Against KLRB1 (GeneID 3820), the values are robust z-score, replicate 1 = -0.449; robust z-score, replicate 2 = -0.127; robust z-score, replicate 3 = -1.28; inactive.
Depletion of PPP1R13B-DT (GeneID 145216) resulted in: robust z-score, replicate 1 = -0.0922; robust z-score, replicate 2 = -0.52; robust z-score, replicate 3 = 0.879; inactive.
For FLG2 (GeneID 388698), the values are robust z-score, replicate 1 = 1.48; robust z-score, replicate 2 = 0.949; robust z-score, replicate 3 = 1.35; inactive.
Against GNPTAB (GeneID 79158), the values are robust z-score, replicate 1 = 0.851; robust z-score, replicate 2 = 1.23; robust z-score, replicate 3 = 1.79; inactive.
Silencing of CFAP69 (GeneID 79846) gave: robust z-score, replicate 1 = -0.257; robust z-score, replicate 2 = -0.0575; robust z-score, replicate 3 = 0.557; inactive.
With knock-down of EDEM2 (GeneID 55741), the screen gave robust z-score, replicate 1 = -0.355; robust z-score, replicate 2 = 0.0481; robust z-score, replicate 3 = -1.02; inactive.

2 entries from above, reformatted:
target | reagent | robust z-score, replicate 1 | robust z-score, replicate 2 | robust z-score, replicate 3 | Outcome
CCL26 (GeneID 10344) | 1 | -1.4 | -1.08 | -1.38 | inactive
BPIFA4P (GeneID 317716) | 1 | -0.796 | -0.695 | -0.747 | inactive
